Measurements from patent US7759385B2, “4-substituted 1-aminocyclohexane compounds for utilization as ORL1-receptor and mu-opiate receptor ligands” (priority 2002, dated 2010).

Chains of the proteins cited; added tags and fusions are not shown.
UniProt P41146, whole entry: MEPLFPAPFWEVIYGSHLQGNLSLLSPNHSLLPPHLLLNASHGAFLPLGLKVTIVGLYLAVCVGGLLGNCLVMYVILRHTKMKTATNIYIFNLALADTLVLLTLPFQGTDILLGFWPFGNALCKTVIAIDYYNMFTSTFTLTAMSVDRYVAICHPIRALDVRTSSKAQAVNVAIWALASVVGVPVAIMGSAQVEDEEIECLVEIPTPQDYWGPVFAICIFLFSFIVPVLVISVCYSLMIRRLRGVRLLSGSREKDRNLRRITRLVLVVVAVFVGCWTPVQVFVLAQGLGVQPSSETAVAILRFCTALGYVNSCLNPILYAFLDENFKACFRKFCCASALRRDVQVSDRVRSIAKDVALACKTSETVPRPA
UniProt P35372, whole entry: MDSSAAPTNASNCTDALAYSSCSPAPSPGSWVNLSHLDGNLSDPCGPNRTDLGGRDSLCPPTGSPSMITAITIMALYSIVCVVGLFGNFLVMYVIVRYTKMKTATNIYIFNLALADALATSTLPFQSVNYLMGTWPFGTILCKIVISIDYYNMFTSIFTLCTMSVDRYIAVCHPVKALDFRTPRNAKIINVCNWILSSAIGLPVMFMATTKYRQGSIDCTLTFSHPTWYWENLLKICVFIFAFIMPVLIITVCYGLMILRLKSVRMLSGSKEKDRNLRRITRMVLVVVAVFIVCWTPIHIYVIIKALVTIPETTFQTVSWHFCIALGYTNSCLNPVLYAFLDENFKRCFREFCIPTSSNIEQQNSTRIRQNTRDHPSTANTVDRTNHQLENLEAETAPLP

Legend:
ORL1 receptor = ORL1 receptor (Homo sapiens, UniProt P41146); test: ORL1 receptor binding assay with 3H-nociceptin/orphanin FQ, membranes of recombinant CHO-ORL1 cells; conditions: read-out: ORL1 Ki, 3H-nociceptin/orphanin FQ 0.5 nM, tested form: citrate
human μ opiate receptor = human μ opiate receptor (Homo sapiens, UniProt P35372); test: μ opiate receptor binding assay, membrane preparation of CHO-K1 cells, [3H]-naloxone (or DAMGO) displacement; conditions: read-out: μ Ki (DA); (DA): measured using DAMGO instead of naloxone; tested form: citrate

Compound	Ki (ORL1 receptor) [µM]	Ki (human μ opiate receptor) [µM]
CN(C)C1(c2ccccc2)CCC(CNC(=O)N2CC=C(c3c[nH]c4ccc(F)cc34)CC2)CC1 (single isomer, unassigned) [Example 43]	0.16	0.015
CN(C)C1(c2ccccc2)CCC(CNC(=O)N2CC=C(c3c[nH]c4ccc(F)cc34)CC2)CC1 (single isomer, unassigned) [Example 44]	0.11	0.0057

The match of structure and compound is tentative.
